The results in this text go back to PubChem BioAssay AID250 (DTP/NCI, 2004).

The structures appear in SMILES notation. The list does not hold the whole screen: it is rich in T/C values a quarter to a half above the control, in often repeated tests (any T/C) and in doses without a T/C. Further doses and runs are listed elsewhere. T/C: endpoint of the treated group in % of that of the vehicle group. Some doses have a count of surviving animals in place of a T/C: the source files T/C as zero there, which appears to mark a toxic dose or a test without result, not a measured value. Some survivor counts are full or nearly so, which does not show that the dose was tolerated: survival well below the control is almost never listed, so the zero probably covers shortened survival too. For some of these results: Survivors were counted at the toxicity check, usually on the fifth day, unless a day is given; later deaths do not show. Schedule codes are those of the source, read here as Q, the interval in days (D) or hours (H), X, the number of doses. Some schedule codes hold Z or #, which are not explained here. Some entries were tested several times; the values are given in rising order. Where survival is the endpoint, the PubChem record calls one and a half times the control and up active, and a quarter to a half above the control has no call in these data; cut-offs in other NCI protocols can differ. Some T/C values are followed by the survivors on the day toxicity was checked, most often the fifth; without a count, all were alive then.

Experiment [1] relates to BDF1 mice, L1210 leukemia sc. Briefly: NCI In Vivo Anticancer Drug Screen. Data for tumor model L1210 Leukemia (subcutaneous) in B6D2F1 (BDF1) mice. Particulars: higher T/C = longer survival. In outline:
(§1)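 Expressed as T/C: measurement in compound-treated, tumor-bearing mice relative to vehicle-treated control mice, based on survival or tumor size.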

Experiment [2] deals with BDF1 mice, L1210 leukemia sc, survival T/C. The experiment is described as above. The conditions noted are these: higher T/C = longer survival. In outline:
as §1

Regarding `NC(=S)N/N=C/c1ccc(O)cn1`, the T/C in experiment [1] (T/C endpoint: median survival time, dose: 10.0 mg/kg/injection, schedule: Q03HX024 (ip), vehicle: other) was 138 % of control; in experiment [1] (T/C endpoint: median survival time, dose: 14.0 mg/kg/injection, schedule: Q03HX024 (sc), vehicle: none) it was 130 % of control; in experiment [1] (T/C endpoint: median survival time, dose: 14.0 mg/kg/injection, schedule: Q03HX024 (sc), vehicle: other, evaluated on day 7), 137 and 146 % of control; in experiment [1] (T/C endpoint: median survival time, dose: 14.0 mg/kg/injection, schedule: Q03HX024 (sc), vehicle: other, evaluated on day 32) it was 140 % of control; in experiment [1] (T/C endpoint: median survival time, dose: 50.0 mg/kg/injection, schedule: Q01DX009 (ip), vehicle: other) it was 144 % of control; in experiment [1] (T/C endpoint: median survival time, dose: 50.0 mg/kg/injection, schedule: Q01DX009 (sc), vehicle: other), 144 % of control. Moreover, the T/C in experiment [1] (T/C endpoint: median survival time, dose: 60.0 mg/kg/injection, schedule: Q03HX024 (sc), vehicle: other) was 144 % of control; in experiment [1] (T/C endpoint: median survival time, dose: 65.0 mg/kg/injection, schedule: Q03HX024 (sc), vehicle: none) it was 130 % of control; in experiment [1] (T/C endpoint: median survival time, dose: 65.0 mg/kg/injection, schedule: Q03HX024 (sc), vehicle: other, evaluated on day 7), 126 and 138 % of control; in experiment [1] (T/C endpoint: median survival time, dose: 65.0 mg/kg/injection, schedule: Q03HX024 (sc), vehicle: other, evaluated on day 30), 144 % of control; in experiment [1] (T/C endpoint: median survival time, dose: 65.0 mg/kg/injection, schedule: Q03HX024 (sc), vehicle: other, evaluated on day 32), 130 % of control; in experiment [1] (T/C endpoint: median survival time, dose: 300.0 mg/kg/injection, schedule: Q01DX009 (sc), vehicle: other), 146 % of control. Moreover, the T/C in experiment [1] (T/C endpoint: median survival time, dose: 500.0 mg/kg/injection, schedule: Q01DX Z (sc), vehicle: saline) was 139 % of control; in experiment [1] (T/C endpoint: median survival time, dose: 500.0 mg/kg/injection, schedule: Q11HX006 (sc), vehicle: water) it was 133 % of control; in experiment [2] (T/C endpoint: median survival time, dose: 14.0 mg/kg/injection, schedule: Q03HX024 (sc), vehicle: other, evaluated on day 30), 150 % of control; in experiment [2] (T/C endpoint: median survival time, dose: 23.0 mg/kg/injection, schedule: Q03HX024 (sc), vehicle: other, evaluated on day 7), 187 and 192 % of control; in experiment [2] (T/C endpoint: median survival time, dose: 23.0 mg/kg/injection, schedule: Q03HX024 (sc), vehicle: other, evaluated on day 30), 194 % of control; in experiment [2] (T/C endpoint: median survival time, dose: 23.0 mg/kg/injection, schedule: Q03HX024 (sc), vehicle: other, evaluated on day 32) it was 190 % of control. Moreover, the T/C was 188 and 194 % of control in experiment [2] (T/C endpoint: median survival time, dose: 39.0 mg/kg/injection, schedule: Q03HX024 (sc), vehicle: other, evaluated on day 7); 200 % of control in experiment [2] (T/C endpoint: median survival time, dose: 39.0 mg/kg/injection, schedule: Q03HX024 (sc), vehicle: other, evaluated on day 30); 185 % of control in experiment [2] (T/C endpoint: median survival time, dose: 39.0 mg/kg/injection, schedule: Q03HX024 (sc), vehicle: other, evaluated on day 32). The survivor count in experiment [2] (T/C endpoint: median survival time, dose: 5.0 mg/kg/injection, schedule: Q03HX024 (sc), vehicle: other) is reported as 0 of 8; in experiment [2] (T/C endpoint: median survival time, dose: 8.4 mg/kg/injection, schedule: Q03HX024 (sc), vehicle: other), 0 of 8; in experiment [2] (T/C endpoint: median survival time, dose: 400.0 mg/kg/injection, schedule: Q01DX009 (ip), vehicle: other), 7 of 8; in experiment [2] (T/C endpoint: median survival time, dose: 500.0 mg/kg/injection, schedule: Q04DX003 (sc), vehicle: water), 5 of 8; in experiment [2] (T/C endpoint: median survival time, dose: 800.0 mg/kg/injection, schedule: Q04DX003 (ip), vehicle: other), 0 of 8; in experiment [2] (T/C endpoint: median survival time, dose: 800.0 mg/kg/injection, schedule: Q04DX003 (sc), vehicle: other), 2 of 8. Moreover, the survivor count is recorded as 4 of 8 in experiment [2] (T/C endpoint: median survival time, dose: 833.0 mg/kg/injection, schedule: Q04DX003 (sc), vehicle: water); 0 of 8 in experiment [2] (T/C endpoint: median survival time, dose: 833.0 mg/kg/injection, schedule: Q11HX006 (sc), vehicle: water); 0 of 8 in experiment [2] (T/C endpoint: median survival time, dose: 1388.0 mg/kg/injection, schedule: Q04DX003 (sc), vehicle: water); 0 of 8 in experiment [2] (T/C endpoint: median survival time, dose: 1388.0 mg/kg/injection, schedule: Q11HX006 (sc), vehicle: water).
For the compound `COc1cc(NS(C)(=O)=O)ccc1Nc1c2ccc([N+](=O)[O-])cc2nc2c(C)cccc12`, the T/C in experiment [1] (T/C endpoint: mean survival time, dose: 2.5 mg/kg/injection, schedule: Q01DX009 (ip), vehicle: saline) was 125 % of control; in experiment [1] (T/C endpoint: mean survival time, dose: 5.0 mg/kg/injection, schedule: Q01DX009 (ip), vehicle: saline), 128 % of control. Further, the survivor count is on record as 10 of 10 in experiment [2] (T/C endpoint: mean survival time, dose: 10.0 mg/kg/injection, schedule: Q01DX009 (ip), vehicle: saline) and 8 of 10 in experiment [2] (T/C endpoint: mean survival time, dose: 20.0 mg/kg/injection, schedule: Q01DX009 (ip), vehicle: saline).
Consider `Cn1cnc([N+](=O)[O-])c1Sc1ncnc2nc[nH]c12`, for which the T/C is 135 % of control [6 of 8 alive] in experiment [1] (T/C endpoint: median survival time, dose: 130.0 mg/kg/injection, schedule: Q01DX Z (sc), vehicle: methylcellulose (MC)); 125 % of control in experiment [1] (T/C endpoint: median survival time, dose: 216.0 mg/kg/injection, schedule: Q01DX Z (sc), vehicle: methylcellulose (MC)); 133 % of control in experiment [1] (T/C endpoint: median survival time, dose: 833.0 mg/kg/injection, schedule: Q01DX Z (oral), vehicle: methylcellulose (MC)). Also, the survivor count is listed as 4 of 10 in experiment [2] (T/C endpoint: median survival time, dose: 3.0 mg/kg/injection, schedule: Q01DX Z (sc), vehicle: methylcellulose (MC)); 6 of 10 in experiment [2] (T/C endpoint: median survival time, dose: 5.0 mg/kg/injection, schedule: Q01DX Z (oral), vehicle: methylcellulose (MC)); 6 of 10 in experiment [2] (T/C endpoint: median survival time, dose: 8.4 mg/kg/injection, schedule: Q01DX Z (oral), vehicle: methylcellulose (MC)); 6 of 10 in experiment [2] (T/C endpoint: median survival time, dose: 14.0 mg/kg/injection, schedule: Q01DX Z (oral), vehicle: methylcellulose (MC)); 5 of 8 in experiment [2] (T/C endpoint: median survival time, dose: 17.0 mg/kg/injection, schedule: Q01DX Z (sc), vehicle: methylcellulose (MC)); 5 of 10 in experiment [2] (T/C endpoint: median survival time, dose: 23.0 mg/kg/injection, schedule: Q01DX Z (sc), vehicle: methylcellulose (MC)). Moreover, the survivor count was 1 of 10 in experiment [2] (T/C endpoint: median survival time, dose: 39.0 mg/kg/injection, schedule: Q01DX Z (oral), vehicle: methylcellulose (MC)); 1 of 10 in experiment [2] (T/C endpoint: median survival time, dose: 39.0 mg/kg/injection, schedule: Q01DX Z (sc), vehicle: methylcellulose (MC)); 2 of 10 in experiment [2] (T/C endpoint: median survival time, dose: 65.0 mg/kg/injection, schedule: Q01DX Z (oral), vehicle: methylcellulose (MC)); 0 of 10 in experiment [2] (T/C endpoint: median survival time, dose: 65.0 mg/kg/injection, schedule: Q01DX Z (sc), vehicle: methylcellulose (MC)); 1 of 10 and 4 of 10 in experiment [2] (T/C endpoint: median survival time, dose: 108.0 mg/kg/injection, schedule: Q01DX Z (oral), vehicle: methylcellulose (MC)); 1 of 10 in experiment [2] (T/C endpoint: median survival time, dose: 108.0 mg/kg/injection, schedule: Q01DX Z (sc), vehicle: methylcellulose (MC)). The survivor count in experiment [2] (T/C endpoint: median survival time, dose: 180.0 mg/kg/injection, schedule: Q01DX Z (oral), vehicle: methylcellulose (MC)) is on record as 3 of 10; in experiment [2] (T/C endpoint: median survival time, dose: 180.0 mg/kg/injection, schedule: Q01DX Z (sc), vehicle: methylcellulose (MC)) it was 1 of 10; in experiment [2] (T/C endpoint: median survival time, dose: 300.0 mg/kg/injection, schedule: Q01DX Z (oral), vehicle: methylcellulose (MC)), 6 of 10; in experiment [2] (T/C endpoint: median survival time, dose: 300.0 mg/kg/injection, schedule: Q01DX Z (sc), vehicle: methylcellulose (MC)) it was 4 of 10.
Take `CS(=O)(=O)OCCCNCCCOS(C)(=O)=O`: the T/C in experiment [1] (T/C endpoint: median survival time, dose: 60.0 mg/kg/injection, schedule: Q01DX009 (sc), vehicle: saline) is 139 % of control; in experiment [1] (T/C endpoint: median survival time, dose: 65.0 mg/kg/injection, schedule: Q04DX003 (ip), vehicle: saline), 137 % of control; in experiment [1] (T/C endpoint: median survival time, dose: 108.0 mg/kg/injection, schedule: Q04DX003 (ip), vehicle: saline), 131 % of control. Further, the survivor count in experiment [2] (T/C endpoint: median survival time, dose: 120.0 mg/kg/injection, schedule: Q01DX009 (sc), vehicle: saline) is 7 of 10.
